# Cleaved PARP in drug-treated melanoma cells

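Human melanoma cell lines in 1,536-well plates were treated with two drugs together for 72 h, then fixed, stained and imaged. Each value is the cleaved-PARP-positive fraction of nuclei relative to DMSO-treated wells, in %, so that 100 equals the control and higher values mean more apoptosis. Every drug was used at one fixed concentration, the higher of two screened. The file gives one value for each pair and line, without errors, so small differences may be noise. The marker varies much from line to line, for technical or biological reasons.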
An unselected part of the screen is shown.
A dash means that no value is listed here.

Every entry is a combination with PF-04217903 at 5 µM: OCCn1cc(-c2cnc3nnn(Cc4ccc5ncccc5c4)c3n2)cn1

Drug key:
tozasertib (0.03 µM): Cc1cc(Nc2cc(N3CCN(C)CC3)nc(Sc3ccc(NC(=O)C4CC4)cc3)n2)n[nH]1
U73122 (2 µM): COc1ccc2c(c1)CCC1C2CCC2(C)C(NCCCCCCN3C(=O)C=CC3=O)CCC12 (stereo not shown)
midostaurin (0.4 µM): CO[C@@H]1[C@H](N(C)C(=O)c2ccccc2)C[C@H]2O[C@]1(C)n1c3ccccc3c3c4c(c5c6ccccc6n2c5c31)C(=O)NC4
SU6656 (2 µM): CN(C)S(=O)(=O)c1ccc2c(c1)/C(=C/c1cc3c([nH]1)CCCC3)C(=O)N2
PD173074 (0.5 µM): CCN(CC)CCCCNc1ncc2cc(-c3cc(OC)cc(OC)c3)c(NC(=O)NC(C)(C)C)nc2n1

Cell line	midostaurin	PD173074	U73122	tozasertib	SU6656
501mel	-	-	93.2	-	-
WM1716	335	96.1	79.5	124	165
COLO 792	96.6	48.5	41.8	128	150
SK-MEL-28	117	45.2	95.5	131	75.9
A101D	107	115	44.6	124	470
COLO 800	150	87.5	56.8	218	182
SK-MEL-5	137	54.7	74.1	601	159
G-361	159	127	81.8	107	78.1
LB2518-MEL	30.4	-	59.7	167	129
COLO 829	216	165	66.5	108	157
MeWo	134	224	91.7	173	112
UACC-62	181	57.8	212	137	109
RPMI-7951	103	180	106	153	84.3
C32	168	80.5	94.8	264	186
IPC-298	27.2	132	40.0	170	120
MZ2-MEL	229	-	94.3	281	268
RVH-421	2640	97.0	155	377	93.2
WM3619	210	103	105	138	120
WM3526	131	106	80.2	259	170
A375	-	69.2	46.2	-	-
UACC-257	57.2	39.1	13.0	74.0	121
LOX IMVI	157	68.7	39.9	143	89.8
WM115	160	51.7	93.2	160	172
A2058	141	114	44.9	271	156
SK-MEL-30	74.9	150	50.6	160	130
WM1745	108	118	97.4	211	114
IST-MEL1	391	31.2	59.3	129	89.0
WM451Lu	126	43.0	76.7	67.2	98.5
SK-MEL-2	137	-	152	145	106
MEL-HO	171	103	21.5	77.2	414

Once more, the final 3:

| Cell line | midostaurin | PD173074 | U73122 | tozasertib | SU6656 |
|---|---|---|---|---|---|
| WM451Lu | 126 | 43.0 | 76.7 | 67.2 | 98.5 |
| SK-MEL-2 | 137 | - | 152 | 145 | 106 |
| MEL-HO | 171 | 103 | 21.5 | 77.2 | 414 |

From a melanoma drug combination screen (doi:10.1371/journal.pone.0140310); values rounded.